# Experimental data published in patent US11642343B2, “Methods of treating splenomegaly” (Telios Pharma, Inc., priority 2020, dated 2023).
# At least one structure is not confirmed: it was looked up by name or label, or the drawing left a doubt.
# Tested on: Hel-92 (V617F mut) cells
# Test: In vitro inhibition of cell migration towards SDF-1 (CXCL12) through a permeable membrane
# Conditions: FIG. 1A and 1B
structure (smiles),measurement,value
"N#CC[C@H](C1CCCC1)n1cc(-c2ncnc3[nH]ccc23)cn1 [ruxolitinib, reference compound]",inhibition of cell migration towards SDF-1,inhibit cell migration towards SDF-1
